Test results from paper PMC4958240.

The chains behind the UniProt entries cited, without tags or fusion partners. Residues count along the entry.
UniProt Q9H3P7, residues 188-528: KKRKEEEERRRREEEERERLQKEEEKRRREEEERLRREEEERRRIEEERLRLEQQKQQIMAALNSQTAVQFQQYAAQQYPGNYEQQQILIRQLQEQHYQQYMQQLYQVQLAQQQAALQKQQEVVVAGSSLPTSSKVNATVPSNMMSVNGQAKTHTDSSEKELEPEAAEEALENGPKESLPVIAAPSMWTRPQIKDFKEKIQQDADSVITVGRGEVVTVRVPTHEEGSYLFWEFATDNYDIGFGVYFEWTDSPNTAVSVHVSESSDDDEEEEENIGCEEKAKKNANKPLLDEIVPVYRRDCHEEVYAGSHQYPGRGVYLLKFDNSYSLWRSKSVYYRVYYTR

Experiments:
[1] = target: SseG fused to the GAL4 DNA-binding domain (bait plasmid pGBT-sseG) (Salmonella enterica serovar Typhimurium strain 12023); experiment: two-hybrid; pairwise test in S. cerevisiae PJ69-4A: baits in pGBT9, prey pGAD-ACBD3_(188-528); growth on SD-QDO (SD/-Leu-Trp-His-Ade) against SD-DDO
[2] = target: SseG fused to the GAL4 DNA-binding domain (bait plasmid pGBT-sseG) (Salmonella enterica serovar Typhimurium strain 12023); experiment: two-hybrid; library screen: bait pGBT-sseG against a pretransformed human HeLa Matchmaker cDNA library; growth on SD-QDO (SD/-Leu-Trp-His-Ade)

Row | Substance | binding [1] | binding [2]
1 | ACBD3_(188-528) subcloned into pGAD424 (pGAD-ACBD3_(188-528)) (from UniProt Q9H3P7 188-528) (domain or fragment) | binds | 
2 | ACBD3 residues 188 to 528, prey clone pGAD-cDNA1 isolated from the HeLa cDNA library (from UniProt Q9H3P7 188-528) (domain or fragment) |  | binds

Results are given in words; binding and its absence hold for the method and conditions named. Binding calls can cover weak binding; strength is not graded here.
